# Assay results taken from PubChem BioAssay AID2685 (National Center for Advancing Translational Sciences (NCATS), 2010).
# The other results are listed elsewhere or left out. Further columns of the screen follow, without active or inactive calls. Most of these compounds were active or inconclusive in the main read-out, so they are no random draw. Potencies come from curve fits of mixed quality, noted in brackets.
# Test: qHTS Assay for Lipid Storage Modulators in Drosophila S3 Cells;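 for cell number change: cells counted by Cell Tracker Red CMTPX staining in the red channel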
# Conditions: BODIPY lipid droplet fluorescence, 18-24 h; for cell number change: measured here: cell count max response, cells fed with added oleic acid
# Outline: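 Drosophila S3 cells loaded with oleic acid (400 uM, as added) and compounds at several concentrations; lipid droplets imaged by 488-nm laser-scanning cytometry, 500–530 nm intensity and object ratio to cell channel. Percent activity normalized to 20 uM Triacsin C.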
# [1] = measured here: lipid fluorescence (Fed channel) AC50, cells fed with added oleic acid
# [2] = measured here: cell number channel AC50, cells fed with added oleic acid
Structure (SMILES),AC50 [1],cell number change,AC50 [2]
CCc1[nH]nc2c1C(c1ccc(Br)s1)C(C#N)=C(N)O2 (stereo not drawn),"2.06 µM [rising, partial curve]",–,–
Cc1ccc(C2CC(=O)N3CN(c4ccc(Br)cc4)CSC3=C2C#N)o1 (stereo not drawn),–,92%,"18.4 µM [rising, single point]"
COc1cccc(/C=N\NC(=O)C2C(=O)NCC2c2ccccc2)c1O (stereo not drawn),"6.51 µM [rising, single point]",-4.83%,–
N=C1c2ccccc2CN1NC(=O)COc1ccc(Cl)cc1,"0.651 µM [falling, full curve, poor fit]",-12.6%,"0.731 µM [falling, full curve, poor fit]"
Cc1ccc(NS(=O)(=O)c2cccc(C(=O)N/N=C/c3c(C)nn(-c4ccccc4)c3N3CCCC3)c2)c(C)c1,"29.1 µM [rising, single point]",10.1%,–
O=C(NC(=S)NCCc1ccccc1)c1ccco1,"6.51 µM [falling, single point]",-15.3%,–
O=C(NC1CCCCC1)C(c1ccco1)N(Cc1cccs1)C(=O)Cn1nnc2ccccc21 (stereo not drawn),–,-30.2%,"29.1 µM [falling, single point]"
COc1ccc2[nH]c(=O)c(C(c3nnnn3C3CCCC3)N(C)C3CCCCC3)cc2c1 (stereo not drawn),"0.0326 µM [falling, full curve]",-6.95%,–
CCOC(=O)c1c(NC(=O)CNC2CCCc3ccccc32)sc(C(N)=O)c1C (stereo not drawn),"0.411 µM [falling, partial curve, poor fit]",19.1%,–
CCOC(=O)c1c(NC(=O)CN(C)C2CCN(C)CC2)sc(C(=O)Nc2ccccc2)c1C,–,15%,–
CCSC(SCC)[C@H](O)[C@@H](O)[C@H](O)[C@H](O)CO,"6.51 µM [rising, single point]",1.63%,–
O=C(COc1ccccc1N1C(=O)C2C3C=CC(C3)C2C1=O)c1ccccc1 (stereo not drawn),"0.00517 µM [falling, full curve, poor fit]",7.17%,–
Cc1ccc(SC(C)C(=O)Nc2ccncc2)cc1 (stereo not drawn),"29.1 µM [rising, single point]",7.74%,–
C[C@@H]1CC=C[C@H]2[C@H]1C(=O)N(Cc1ccccc1)[C@H]2c1ccc(C(F)(F)F)cc1,"29.1 µM [falling, single point]",-43.5%,"32.6 µM [falling, single point]"
Cc1ccc(-c2noc(CNC(=O)COc3ccccc3C)n2)cc1,"29.1 µM [falling, single point]",-20.4%,–
CCOC(=O)C1=C(C)NC(=S)N(C(C)=O)C1c1ccc(Cl)cc1 (stereo not drawn),"29.1 µM [falling, single point]",-44.1%,"32.6 µM [falling, single point]"

# One compound at a time, as listed above.
# `CCSC(SCC)[C@H](O)[C@@H](O)[C@H](O)[C@H](O)CO` is listed with AC50 [1]: 6.51 µM [rising, single point]; cell number change: 1.63%
# `Cc1ccc(C2CC(=O)N3CN(c4ccc(Br)cc4)CSC3=C2C#N)o1` (stereo not drawn) is listed with cell number change: 92%; AC50 [2]: 18.4 µM [rising, single point]
